Common to all, as to test: EMSA
(In general: In EMSA bound probe runs differently from free probe, usually more slowly.)

Amino acid sequences for entries named in this document (tags omitted). A change or cut given only in a name is not applied to a line headed by its entry. Residues count along the entry.
UniProt P52947, 140-215: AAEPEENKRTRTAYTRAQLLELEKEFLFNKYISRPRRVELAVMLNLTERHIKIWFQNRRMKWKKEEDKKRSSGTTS

One series relates to STF-1 + Pbx1 heterodimer. Particulars: purified recombinant protein, label: 32P.
A further series has as its target STF-1 (IPF1/IDX-1/PDX1) (UniProt P52947). Particulars: purified recombinant protein, label: 32P.
Series [1] concerns the target STF-1 FPWMK to AAGGQ mutant (UniProt P52947). Particulars: wild-type binding activity; purified recombinant protein; label: 32P.
Another series addresses T1, Isl1 homeodomain (rat) (UniProt P61374).
T1 sequence (looked up): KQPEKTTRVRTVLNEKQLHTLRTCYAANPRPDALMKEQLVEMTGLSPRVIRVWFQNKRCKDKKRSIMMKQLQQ
Particulars: high affinity; purified recombinant protein; protein details: GST; label: 32P.

In the next series the test system is Isl1 homeodomain + Pbx1. Particulars: no heterodimer; monomer binds; purified recombinant protein; protein details: GST-Isl1, Pbx1 in vitro translated; label: 32P.
In another series the test system is Oct-1 (complex C3). Particulars: complex C3 identified by Oct-1 antiserum; protein in an extract; label: 32P.
Series [2] relates to PIM-Isl1 homeodomain fusion + Pbx1. Particulars: no heterodimer; fusion monomer binds with wild-type affinity; purified recombinant protein; protein details: GST, Pbx1 in vitro translated; label: 32P.
The subject of series [3] is PIM-cdx3 fusion with STF-1 homeodomain N-terminal arm + Pbx1. The settings on record: N-terminal arm of STF-1 rescues cooperativity; purified recombinant protein; label: 32P.
Series [4] has as its system PIM-cdx3 homeodomain fusion + Pbx1. Particulars: no heterodimer; fusion monomer binds with wild-type affinity; purified recombinant protein; protein details: GST, Pbx1 in vitro translated; label: 32P.
A further series deals with STF-1 110-215 + Pbx1. Particulars: cooperative; purified recombinant protein; protein details: GST-STF-1 from E. coli, Pbx1 in vitro translated; label: 32P.
Series [5] relates to STF-1 FPWMK to AAGGQ mutant + Pbx1 FPWMK to AAGGQ (STF-1). Particulars: deficient in cooperativity with Pbx; purified recombinant protein; protein details: Pbx1 in vitro translated; label: 32P.
The test system of the next series is STF-1 delta1-115 + Pbx1. Particulars: cooperativity retained; protein translated in vitro; label: 32P.
Series [6] deals with STF-1 delta216-284 + Pbx1. The settings on record: cooperativity retained; protein translated in vitro; label: 32P.
In series [7] the test system is STF-1 homeodomain (140-215) + Pbx1. The settings on record: no heterodimer; monomer only; purified recombinant protein; protein details: GST-STF-1 from E. coli, Pbx1 in vitro translated; label: 32P.
The target of series [8] is STF-1 homeodomain (Hox 140-215) (UniProt P52947). Particulars: monomeric complex; purified recombinant protein; protein details: GST (pGEX3X); label: 32P.
The subject of a further series is cdx3 homeodomain + Pbx1. The settings on record: no heterodimer; purified recombinant protein; protein details: GST, Pbx1 in vitro translated; label: 32P.

For part of these data: Negatives hold for the conditions tested. For part of these data: The comparison behind a weaker result is the experiment's own reference, which may not be listed here. For part of these data: The exact form of at least one protein or probe is not confirmed. For part of these data: Results from cells or extracts need not show a direct contact. For part of these data: Tags and fusion partners may be left off the protein sequences shown.

As to “GATCTCAGCTATTAATCATGCA / CTACTCCATGATTAATAGCTGA [TSEII M1]”, in the series on STF-1 + Pbx1 heterodimer (minimal effect on cooperativity, variant of somatostatin TSEII), the binding result was “binds”.

Take “GATCTCAGTAATTATACATGCA / GTACTGCATGTATAATTACTGA [TSEII M3]”: the binding result with STF-1 (IPF1/IDX-1/PDX1) (M3 affected formation of monomeric C1, variant of somatostatin TSEII) was “binds more weakly”.

Turning to “GATCTCAGTAATCTAATCATGCA / AGTCATTAATATGTACGTCATG [TSEII M2]”, the binding result with STF-1 + Pbx1 heterodimer (heterodimer completely abolished, variant of somatostatin TSEII) is recorded as “no binding”.

In the case of “GATCTTGTTAATAATCTAATTACCCTAG / AACAATTATTAGATTAATGGGATCCAT [insulin I FLAT element]”, the binding result in the series with STF-1 (IPF1/IDX-1/PDX1) (high affinity site) is listed as “binds”; in the series on STF-1 + Pbx1 heterodimer (no heteromeric complex), “no binding”; in [1] it was “binds”.

Turning to “GATCTCAGTAATTAATCATGCA / AGTCATTAATTAGTACGTCATG [somatostatin TSEII]”, the binding result is on record as “binds” in the series with Isl1 homeodomain (rat); “no binding” in the series on Isl1 homeodomain + Pbx1; “binds” in the series on Oct-1 (complex C3); “no binding” in series [2]; “binds” in series [3]; “no binding” in series [4]. For the same sequence, the binding result in the series with STF-1 (IPF1/IDX-1/PDX1) (monomeric complex C1, complex C1 half-life <1 min (Tu-6 extract)) is “binds”; in the series on STF-1 + Pbx1 heterodimer (cooperative C2 complex, stability comparable to endogenous C2), “binds”; in the series on STF-1 110-215 + Pbx1, “binds”; in series [5], “binds more weakly”; in the series with STF-1 delta1-115 + Pbx1, “binds”; in series [6], “binds”. The binding result in [7] is listed as “no binding”; in series [8], “binds”; with cdx3 homeodomain + Pbx1, “no binding”.

(Values after patent US5849493.)
